Reference: US20110294794A1, “TREATMENT OF PROTEINOPATHIES USING A FARNESYL TRANSFERASE INHIBITOR” (Link Medicine Corporation, priority 2008, published 2011)
Entries after “also recorded” stand apart in the source; their conditions may differ. At least one structure is not confirmed: it was looked up by name or label, or the drawing left a doubt.

What was measured:
LC3 mRNA = LC3 mRNA (qPCR) in differentiated SH-SY5Y cells; format: cell-based, human; conditions: 1 μM, 72 hr
Method: (§1) Cell culture and immunocytochemistry: SH-SY5Y cells were grown in DMEM medium supplemented with 10% FBS and 1% pen/strep at 37° C. and 5% CO2. Cells were differentiated with 10 μM retinoic acid for 48 hr, then treated with the either rapamycin (100 nM or 1 μM) or with 100 nM of either LNK-754-TS or Tipifarnib for 48-72 hr. Cells were then fixed with 4% paraformaldehyde and stained for LC3 (Novus biological, NB100-2331, dilution 1:800) followed by secondary Alexa-564 anti-Rabbit (A-11011).
(§2) Quantitative real-time PCR: Gene expression profiles were done by qPCR on series of known autophagy genes. RNA was extracted with Tri-reagent (Sigma), and cDNAs generated using iScript (Biorad). qPCR analysis was carried out in a 96 well plate using an iCycler (BioRad, Hercules, Calif.), and iQ SYBR Green Supermix (Biorad) according to the manufacturer's specifications.
Such increases in LC3 mRNA levels are associated in the literature with stimulation of macroautophagy. […]
Autophagy was measured in a neuroblastoma cell culture system by three distinct approaches: quantitation of autophagy-related mRNA's, immunofluorescence microscopy of autophagosomes, and biochemical detection of the microtubule-associated protein 1 light chain 3 (LC3) a key protein that is required for autophagosome formation. […]

LC3 = experiment: Punctate LC3 immunostaining in SH-SY5Y cells; format: cell-based, human; conditions: 1 μM (FIG. 8b)
Method: as §1
Autophagy was measured in a neuroblastoma cell culture system by three distinct approaches: quantitation of autophagy-related mRNA's, immunofluorescence microscopy of autophagosomes, and biochemical detection of the microtubule-associated protein 1 light chain 3 (LC3) a key protein that is required for autophagosome formation. Differentiated human neuroblastoma cells (SH-SY5Y) were treated for 72 hr with LNK-754-TS (0.01-100 nM), Zarnestra® (also referred to herein as tipifarnib) (100 nM) or rapamycin (1 μM).

LC3-II = LC3-II protein level (autophagic flux) in SH-SY5Y cells with or without bafilomycin A1; format: cell-based, human; conditions: 100 nM in the presence of bafilomycin A1
Excerpt: Data are represented as mean+/−SEM with statistical significance by paired student's t-test (n=4, p<0.05).
The observed increase in LC3-positive autophagosomes could result, in principle, from either an increased flux through the autophagy pathway or decreased autophagosome degradation (Pankiv, S., et al. J Biol Chem 282, 24131-24145 (2007); Kamada, Y., et al. J Cell Biol 150, 1507-1513 (2000)). […] In order to ascertain an increase in autophagic flux, cells were co-treated with LNK-754-TS and an inhibitor of autophagosome-lysosome fusion, bafilomycin A1 (10 nM). Bafilomycin treatment alone caused a 100% increase in the amount of LC3-II, consistent with the fact that it inhibits autophagosome degradation (FIG. 8c).
(§3) The mechanism of autophagy stimulation by LNK-754-TS appears distinct from that of the drug rapamycin. Rapamycin is a well-characterized autophagy stimulator that acts through inhibition of mTOR, a kinase involved in nutrient signaling and regulation of cell growth and survival. […] To further contrast the mechanism of autophagy stimulation by LNK-754-TS to that of rapamycin, a collection of mRNA transcripts of autophagy proteins were measured (FIG. 8d). Selected mRNAs from untreated SH-SY5Y cells were compared to mRNAs from cells treated with LNK-754-TS (100 nM), tipifarnib (100 nM), or rapamycin (1 μM).

Atg1 = experiment: mRNA levels of autophagy-related genes (Atg1) in SH-SY5Y cells; format: cell-based, human; conditions: 1 μM (FIG. 8d)
Method: as §2, §3

p70 S6 kinase (S6K) = experiment: p70S6K phosphorylation in SH-SY5Y cells; format: cell-based, human; conditions: 10 nM-10 μM (FIG. 8f)
[1] = rodents; Cleary et al., Brain Research Bulletin 2008; cited from earlier work

## CO[C@H]1C[C@@H]2CC[C@@H](C)[C@@](O)(O2)C(=O)C(=O)N2CCCC[C@H]2C(=O)O[C@H]([C@H](C)C[C@@H]2CC[C@@H](O)[C@H](OC)C2)CC(=O)[C@H](C)/C=C(\C)[C@@H](O)[C@@H](OC)C(=O)[C@H](C)C[C@H](C)/C=C/C=C/C=C/1C [rapamycin]
LC3 mRNA
  LC3 mRNA level: upregulated; also recorded: increased
LC3
  punctate LC3 immunostaining (number of LC3-positive puncta): distinct increase; also recorded: increased
LC3-II
  LC3-II protein levels: increased
Atg1
  transcript encoding Atg1: increase; also recorded: upregulation
p70 S6 kinase (S6K)
  p70S6K phosphorylation: m-TOR dependent decrease
[1]
  anti-depressive effect: anti-depressive effect
